Data as given in PubChem BioAssay AID1259308 (NCATS, 2017).
Screen: 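Knock-downs that increase output of a recombinant reporter protein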 (primary screen). Cell system: human HEK293 embryonic kidney cells stably expressing firefly luciferase (HEK-CMV-Luc2-Hygro). Reagent: single siRNA against human genes, 0.8 pmol siRNA per well. Duration: 72 h. Measured: 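Luciferase light (ONE-Glo) measured on one replicate plate set and viability (CellTiter-Glo) on the other, scaled to a negative control siRNA, with robust z-scores and luciferase per cell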. Reading the numbers: total luciferase, z-score and total luciferase, % of control: higher = more reporter protein produced; luciferase per cell, z-score: higher = more reporter output per viable cell; viable cells, % of control: higher = more viable cells. Rule for the call: 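Active when the median/MAD z-score for overall luciferase is greater than 3; a gene was taken forward for validation with new siRNAs if at least two of its three siRNAs passed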. Calls: active = raised luciferase; inactive = no rise.
Shown is one part, drawn at random, of about 59,000 deposited reagents. In the full data, about 1,510 (2.6%) were called active. 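Calls use total luciferase alone and ignore viability, so some active siRNAs may act by altering cell number.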 The numbers tell different reagents against one gene apart.

| Gene | siRNA no. | total luciferase, z-score | total luciferase, % of control | luciferase per cell, z-score | viable cells, % of control | Call |
| --- | --- | --- | --- | --- | --- | --- |
| ZNF578 (zinc finger protein 578) | 1 | -0.533 | 71.3 | -0.0181 | 80 | inactive |
| ZNF578 (zinc finger protein 578) | 2 | -0.64 | 69.1 | -0.362 | 85 | inactive |
| ZNF578 (zinc finger protein 578) | 3 | 2.19 | 125 | 2.16 | 79.3 | inactive |
| HNF1B (HNF1 homeobox B) | 1 | 0.0741 | 83.4 | 0.503 | 81.6 | inactive |
| HNF1B (HNF1 homeobox B) | 2 | -0.0545 | 80.8 | -0.0876 | 92.4 | inactive |
| HNF1B (HNF1 homeobox B) | 3 | -2.08 | 40.4 | -1.82 | 72.9 | inactive |
| RUFY2 (RUN and FYVE domain containing 2) | 1 | 1.23 | 106 | 0.9 | 93.8 | inactive |
| RUFY2 (RUN and FYVE domain containing 2) | 2 | -1.31 | 55.9 | -1.31 | 88.2 | inactive |
| RUFY2 (RUN and FYVE domain containing 2) | 3 | 1.96 | 121 | 2.2 | 75.6 | inactive |
| PSMD14 (proteasome 26S subunit, non-ATPase 14) | 1 | -0.53 | 71.3 | 2.29 | 43.6 | inactive |
| PSMD14 (proteasome 26S subunit, non-ATPase 14) | 2 | 0.0989 | 83.9 | 2.74 | 45.5 | inactive |
| PSMD14 (proteasome 26S subunit, non-ATPase 14) | 3 | -0.46 | 72.7 | 0.743 | 66.8 | inactive |

Ordered by “luciferase per cell, z-score” (low to high): some entries from above
| Gene | siRNA no. | total luciferase, z-score | total luciferase, % of control | luciferase per cell, z-score | viable cells, % of control | Call |
| --- | --- | --- | --- | --- | --- | --- |
| HNF1B (HNF1 homeobox B) | 3 | -2.08 | 40.4 | -1.82 | 72.9 | inactive |
| HNF1B (HNF1 homeobox B) | 2 | -0.0545 | 80.8 | -0.0876 | 92.4 | inactive |
| HNF1B (HNF1 homeobox B) | 1 | 0.0741 | 83.4 | 0.503 | 81.6 | inactive |
| RUFY2 (RUN and FYVE domain containing 2) | 1 | 1.23 | 106 | 0.9 | 93.8 | inactive |

Continued:
| Gene | siRNA no. | total luciferase, z-score | total luciferase, % of control | luciferase per cell, z-score | viable cells, % of control | Call |
| --- | --- | --- | --- | --- | --- | --- |
| NCAPD2 (non-SMC condensin I complex subunit D2) | 1 | -0.294 | 76 | 1.14 | 63 | inactive |
| NCAPD2 (non-SMC condensin I complex subunit D2) | 2 | 0.239 | 86.6 | -0.0473 | 98 | inactive |
| NCAPD2 (non-SMC condensin I complex subunit D2) | 3 | -0.246 | 77 | 0.271 | 80.1 | inactive |
| CLOCK (clock circadian regulator) | 1 | -1.67 | 48.7 | -1.83 | 88.1 | inactive |
| CLOCK (clock circadian regulator) | 2 | -1.31 | 55.9 | -1.11 | 83.6 | inactive |
| CLOCK (clock circadian regulator) | 3 | -0.715 | 67.7 | -0.57 | 87.8 | inactive |
| ATP10B (ATPase phospholipid transporting 10B (putative)) | 1 | -1.34 | 55.3 | -1.55 | 92.9 | inactive |
| ATP10B (ATPase phospholipid transporting 10B (putative)) | 2 | 0.00781 | 82 | -0.432 | 103 | inactive |
| ATP10B (ATPase phospholipid transporting 10B (putative)) | 3 | 0.944 | 101 | 1.02 | 86 | inactive |
| PREP (prolyl endopeptidase) | 1 | 0.7 | 95.8 | 0.455 | 95 | inactive |
| PREP (prolyl endopeptidase) | 2 | -0.355 | 74.8 | -0.176 | 87.6 | inactive |
| PREP (prolyl endopeptidase) | 3 | 0.734 | 96.5 | 0.281 | 100 | inactive |
